Assay [1] deals with androgen receptor (AR), endogenous mouse brain (mouse (endogenous in brain)) (UniProt P19091). The assay is described as follows: co-IP; whole brain lysate (2 mg; PBS, 0.5% NP-40) of 12-month-old WT or Fkbp5^TPRmut homozygous males incubated overnight at 4 °C with GR affinity resin, anti-AR agarose resin or empty agarose beads; Western blot for GR, AR, Hsp90, FKBP51, FKBP52, PP5.

Chains of the proteins cited; added tags and fusions are not shown.
UniProt P19091: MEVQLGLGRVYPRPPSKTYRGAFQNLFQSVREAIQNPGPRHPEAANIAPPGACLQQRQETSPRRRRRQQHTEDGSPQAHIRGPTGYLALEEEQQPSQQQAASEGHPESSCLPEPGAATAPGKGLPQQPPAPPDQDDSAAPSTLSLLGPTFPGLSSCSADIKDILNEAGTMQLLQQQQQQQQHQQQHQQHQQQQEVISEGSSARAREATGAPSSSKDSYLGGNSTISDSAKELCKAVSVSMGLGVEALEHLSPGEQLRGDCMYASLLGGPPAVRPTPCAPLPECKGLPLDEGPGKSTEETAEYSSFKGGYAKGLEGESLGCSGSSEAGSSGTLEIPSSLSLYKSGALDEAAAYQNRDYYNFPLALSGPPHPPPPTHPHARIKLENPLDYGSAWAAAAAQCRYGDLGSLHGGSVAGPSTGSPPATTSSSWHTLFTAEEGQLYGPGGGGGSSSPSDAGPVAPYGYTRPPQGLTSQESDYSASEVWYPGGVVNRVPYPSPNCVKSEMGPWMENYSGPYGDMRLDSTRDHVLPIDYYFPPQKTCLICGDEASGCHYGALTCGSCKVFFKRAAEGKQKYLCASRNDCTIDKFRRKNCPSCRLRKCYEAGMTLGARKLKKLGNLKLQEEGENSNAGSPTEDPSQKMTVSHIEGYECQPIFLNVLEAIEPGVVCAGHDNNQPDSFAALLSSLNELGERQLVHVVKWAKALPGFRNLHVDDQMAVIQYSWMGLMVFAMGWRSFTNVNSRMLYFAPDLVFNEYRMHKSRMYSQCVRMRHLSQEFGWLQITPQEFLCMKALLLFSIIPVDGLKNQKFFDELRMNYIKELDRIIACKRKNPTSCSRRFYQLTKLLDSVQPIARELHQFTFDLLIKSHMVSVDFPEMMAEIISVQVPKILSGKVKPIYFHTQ
UniProt P06537: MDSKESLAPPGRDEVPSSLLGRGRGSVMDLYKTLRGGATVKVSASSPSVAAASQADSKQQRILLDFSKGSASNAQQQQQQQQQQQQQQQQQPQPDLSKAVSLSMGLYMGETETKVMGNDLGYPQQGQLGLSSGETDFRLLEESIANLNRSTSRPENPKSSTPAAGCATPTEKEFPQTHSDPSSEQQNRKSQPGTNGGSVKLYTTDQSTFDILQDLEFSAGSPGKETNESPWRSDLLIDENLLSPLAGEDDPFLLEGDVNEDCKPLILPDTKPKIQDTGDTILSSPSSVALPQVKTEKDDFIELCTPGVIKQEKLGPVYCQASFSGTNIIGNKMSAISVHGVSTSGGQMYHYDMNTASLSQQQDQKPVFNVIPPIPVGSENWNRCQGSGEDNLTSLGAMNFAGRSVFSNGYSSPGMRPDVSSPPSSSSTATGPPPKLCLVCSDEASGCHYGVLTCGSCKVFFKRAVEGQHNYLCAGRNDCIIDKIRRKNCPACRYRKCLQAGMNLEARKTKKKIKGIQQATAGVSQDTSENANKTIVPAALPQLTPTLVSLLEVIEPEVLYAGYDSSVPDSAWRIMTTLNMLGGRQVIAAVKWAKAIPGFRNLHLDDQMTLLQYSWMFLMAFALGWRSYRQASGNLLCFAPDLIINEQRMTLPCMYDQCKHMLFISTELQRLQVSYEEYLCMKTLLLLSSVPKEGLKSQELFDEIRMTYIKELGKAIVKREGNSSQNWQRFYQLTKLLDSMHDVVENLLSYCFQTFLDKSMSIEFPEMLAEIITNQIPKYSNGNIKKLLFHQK

For assay [2], the target named is glucocorticoid receptor (GR), endogenous mouse brain (mouse (endogenous in brain)) (UniProt P06537). The assay is described as above.

Results are given in words; binding and its absence hold for the method and conditions named. In cells and extracts the contact can be indirect. Some binding calls cover weakened binding; strength is not graded here.

B1: PP5, endogenous mouse brain (enzyme, UniProt Q60676 1-499)
chain: MAMAEGERTECAETPRDEPPADGTLKRAEELKTQANDYFKAKDYENAIKFYSQAIELNPGNAIYYGNRSLAYLRTECYGYALGDATRAIELDKKYIKGYYRRAASNMALGKFRAALRDYETVVKVKPNDKDAKMKYQECSKIVKQKAFERAIAGDEHRRSVVDSLDIESMTIEDEYSGPKLEDGKVTITFMKDLMQWYKDQKKLHRKCAYQILVQVKEVLCKLSTLVETTLKETEKITVCGDTHGQFYDLLNIFELNGLPSETNPYIFNGDFVDRGSFSVEVILTLFGFKLLYPDHFHLLRGNHETDNMNQIYGFEGEVKAKYTAQMYELFSEVFEWLPLAQCINGKVLIMHGGLFSEDGVTLDDIRKIERNRQPPDSGPMCDLLWSDPQPQNGRSVSKRGVSCQFGPDVTKAFLEENQLDYIIRSHEVKAEGYEVAHGGRCVTVFSAPNYCDQMGNKASYIHLQGSDLRPQFHQFTAVPHPNVKPMAYANTLLQLGMM
In the case of B1, the binding entry in assay [1] and in assay [2] was “binds” each time.

B2: FKBP51 K352A, R356A (Fkbp5^TPRmut knock-in mouse) (protein, UniProt Q64378 1-456)
chain: MTTDEGTSNNGENPAATMTEQGEDITTKKDRGVLKIVKRVGTSDEAPMFGDKVYVHYKGMLSDGKKFDSSHDRKKPFAFSLGQGQVIKAWDIGVSTMKKGEICHLLCKPEYAYGSAGHLQKIPSNATLFFEIELLDFKGEDLFEDSGVIRRIKRKGEGYSNPNEGATVKVHLEGCCGGRTFDCRDVVFVVGEGEDHDIPIGIDKALVKMQREEQCILYLGPRYGFGEAGKPKFGIDPNAELMYEVTLKSFEKAKESWEMDTKEKLTQAAIVKEKGTVYFKGGKYTQAVIQYRKIVSWLEMEYGLSEKESKASESFLLAAFLNLAMCYLKLREYNKAVECCDKALGLDSANEAGLYARGEAQLLMNDFESAKGDFEKVLAVNPQNRAARLQISMCQRKAKEHNERDRRVYANMFKKFAERDAKEEASKAGSKKAVEGAAGKQHESQAMEEGKAKGHV
Consider B2, for which the binding entry in assay [1] and in assay [2] was “no binding” throughout.

The values are drawn from article PMC10896785.
